Source: publication PMC6713736

Sequences of proteins named here, by UniProt entry; tags and fusion partners are left off.
UniProt Q9HCM4: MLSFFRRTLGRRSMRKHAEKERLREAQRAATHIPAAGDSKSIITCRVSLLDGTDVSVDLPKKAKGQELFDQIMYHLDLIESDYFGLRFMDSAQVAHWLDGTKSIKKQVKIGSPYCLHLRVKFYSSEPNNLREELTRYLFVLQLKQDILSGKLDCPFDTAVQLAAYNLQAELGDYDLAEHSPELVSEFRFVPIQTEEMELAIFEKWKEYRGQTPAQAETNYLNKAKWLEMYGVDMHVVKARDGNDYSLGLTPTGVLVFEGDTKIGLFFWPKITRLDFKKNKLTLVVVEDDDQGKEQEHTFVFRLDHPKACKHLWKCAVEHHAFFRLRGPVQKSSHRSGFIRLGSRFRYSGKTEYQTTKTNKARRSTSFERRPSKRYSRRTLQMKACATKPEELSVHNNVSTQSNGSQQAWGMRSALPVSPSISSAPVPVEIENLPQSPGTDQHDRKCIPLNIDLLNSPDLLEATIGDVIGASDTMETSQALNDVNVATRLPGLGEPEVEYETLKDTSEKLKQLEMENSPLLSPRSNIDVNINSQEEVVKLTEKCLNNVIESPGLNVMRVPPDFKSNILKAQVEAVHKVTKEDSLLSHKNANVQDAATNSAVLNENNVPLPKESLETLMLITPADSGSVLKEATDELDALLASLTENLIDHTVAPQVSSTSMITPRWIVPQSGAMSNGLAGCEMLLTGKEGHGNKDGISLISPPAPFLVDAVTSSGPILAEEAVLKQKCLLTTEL
UniProt Q07157: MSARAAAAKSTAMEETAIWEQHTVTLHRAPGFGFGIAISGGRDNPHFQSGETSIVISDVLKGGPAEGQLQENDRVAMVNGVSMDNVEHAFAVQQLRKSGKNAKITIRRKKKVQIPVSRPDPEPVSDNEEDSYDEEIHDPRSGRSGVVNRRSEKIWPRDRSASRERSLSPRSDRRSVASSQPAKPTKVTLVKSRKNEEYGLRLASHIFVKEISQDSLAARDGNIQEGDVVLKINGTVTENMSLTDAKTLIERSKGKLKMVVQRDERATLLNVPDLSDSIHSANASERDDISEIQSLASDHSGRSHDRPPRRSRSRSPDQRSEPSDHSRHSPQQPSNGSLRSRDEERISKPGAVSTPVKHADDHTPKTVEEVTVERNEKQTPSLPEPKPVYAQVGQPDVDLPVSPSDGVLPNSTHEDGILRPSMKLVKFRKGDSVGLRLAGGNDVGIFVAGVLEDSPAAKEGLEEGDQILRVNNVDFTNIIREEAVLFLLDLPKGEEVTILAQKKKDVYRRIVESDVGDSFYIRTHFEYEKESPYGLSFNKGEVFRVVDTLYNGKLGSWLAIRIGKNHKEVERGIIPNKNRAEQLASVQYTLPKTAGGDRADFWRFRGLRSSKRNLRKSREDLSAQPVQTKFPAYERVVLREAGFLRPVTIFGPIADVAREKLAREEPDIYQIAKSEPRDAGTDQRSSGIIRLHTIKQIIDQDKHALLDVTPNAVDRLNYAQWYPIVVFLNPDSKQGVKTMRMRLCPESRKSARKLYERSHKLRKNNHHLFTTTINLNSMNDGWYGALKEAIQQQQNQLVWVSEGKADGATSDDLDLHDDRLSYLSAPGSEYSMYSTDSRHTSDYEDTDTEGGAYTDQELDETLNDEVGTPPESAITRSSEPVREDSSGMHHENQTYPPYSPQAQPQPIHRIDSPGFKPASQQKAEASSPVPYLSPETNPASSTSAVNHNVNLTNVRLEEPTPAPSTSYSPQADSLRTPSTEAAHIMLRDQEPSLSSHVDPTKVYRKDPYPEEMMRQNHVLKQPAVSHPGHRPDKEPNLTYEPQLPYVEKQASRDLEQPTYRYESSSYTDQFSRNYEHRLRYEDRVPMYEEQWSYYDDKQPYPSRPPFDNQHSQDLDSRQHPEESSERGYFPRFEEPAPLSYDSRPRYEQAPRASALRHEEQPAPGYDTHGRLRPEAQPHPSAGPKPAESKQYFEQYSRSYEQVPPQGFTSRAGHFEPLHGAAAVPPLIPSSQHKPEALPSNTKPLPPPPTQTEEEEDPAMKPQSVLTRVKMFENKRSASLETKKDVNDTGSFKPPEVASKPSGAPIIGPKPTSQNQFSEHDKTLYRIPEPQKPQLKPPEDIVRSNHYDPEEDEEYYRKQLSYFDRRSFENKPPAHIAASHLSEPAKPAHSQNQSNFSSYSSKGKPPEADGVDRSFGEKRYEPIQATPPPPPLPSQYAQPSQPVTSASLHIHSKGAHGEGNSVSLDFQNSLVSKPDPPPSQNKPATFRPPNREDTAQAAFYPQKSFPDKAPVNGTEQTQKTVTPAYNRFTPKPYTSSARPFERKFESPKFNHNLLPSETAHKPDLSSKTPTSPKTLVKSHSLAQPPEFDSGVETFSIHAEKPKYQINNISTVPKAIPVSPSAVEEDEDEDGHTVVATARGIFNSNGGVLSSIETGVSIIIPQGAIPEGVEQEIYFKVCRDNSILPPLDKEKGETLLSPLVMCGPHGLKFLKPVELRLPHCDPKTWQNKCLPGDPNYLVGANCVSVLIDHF
UniProt Q9UDY2: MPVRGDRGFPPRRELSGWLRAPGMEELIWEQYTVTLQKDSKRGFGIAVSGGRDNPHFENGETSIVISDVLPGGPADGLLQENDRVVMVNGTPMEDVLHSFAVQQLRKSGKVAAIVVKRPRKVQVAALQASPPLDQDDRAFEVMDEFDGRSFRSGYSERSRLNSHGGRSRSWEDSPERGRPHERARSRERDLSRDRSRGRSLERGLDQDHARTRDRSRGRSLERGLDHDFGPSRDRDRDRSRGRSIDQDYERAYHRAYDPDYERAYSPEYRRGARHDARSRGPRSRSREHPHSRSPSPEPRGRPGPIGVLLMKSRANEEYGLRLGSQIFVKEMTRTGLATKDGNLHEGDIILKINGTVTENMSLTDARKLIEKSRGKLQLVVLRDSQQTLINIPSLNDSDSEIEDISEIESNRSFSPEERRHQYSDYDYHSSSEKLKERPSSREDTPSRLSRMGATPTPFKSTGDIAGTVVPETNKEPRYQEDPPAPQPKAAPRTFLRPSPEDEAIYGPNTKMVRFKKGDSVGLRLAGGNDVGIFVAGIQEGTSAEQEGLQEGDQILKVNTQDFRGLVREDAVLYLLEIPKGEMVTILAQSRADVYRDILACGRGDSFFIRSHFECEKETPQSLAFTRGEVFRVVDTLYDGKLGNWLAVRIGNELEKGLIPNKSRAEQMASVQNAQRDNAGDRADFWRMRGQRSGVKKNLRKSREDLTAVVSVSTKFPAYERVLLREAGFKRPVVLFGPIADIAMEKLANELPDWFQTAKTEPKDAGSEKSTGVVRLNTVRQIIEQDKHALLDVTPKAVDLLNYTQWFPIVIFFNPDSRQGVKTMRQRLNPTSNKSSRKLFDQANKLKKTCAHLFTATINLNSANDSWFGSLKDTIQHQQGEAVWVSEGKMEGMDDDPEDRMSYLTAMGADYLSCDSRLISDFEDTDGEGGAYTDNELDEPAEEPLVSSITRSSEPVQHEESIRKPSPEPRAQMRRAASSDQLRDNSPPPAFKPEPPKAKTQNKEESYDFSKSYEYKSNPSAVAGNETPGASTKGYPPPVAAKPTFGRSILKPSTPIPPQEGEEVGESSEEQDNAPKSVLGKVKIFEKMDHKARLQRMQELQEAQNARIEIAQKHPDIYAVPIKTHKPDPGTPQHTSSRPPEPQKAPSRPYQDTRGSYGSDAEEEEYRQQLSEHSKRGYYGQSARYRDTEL

Biological target: FLAG-EPB41L5 full length (human) (UniProt Q9HCM4)
Experiment: affinity purification with mass spectrometry; immuno-affinity purification of FLAG-EPB41L5 from stably expressing HEK293T cells; trypsin digestion, mass spectrometry

Substance	binding
ZO1 (from UniProt Q07157 1-1748)	binds
ZO2 (from UniProt Q9UDY2 1-1190)	binds

No constants are given. Whether binding was seen depends on the method and setting. Binding seen in cells or lysates may run through a third protein. These calls come from enrichment with a bait or labelling near it, and not all partners need be listed.
